Measurements as given in patent US10138232B2, “Naphthyridinedione derivatives” (NOVARTIS AG, priority 2014, dated 2018).
Some entries share one result that the patent states for a list of compounds.

System: CFTR-Y122X (GFP-CFTR-Y122X-Renilla construct) in Hek293 cell lines
Test: CFTR-Y122X assay (dual reporter readthrough, Renilla luminescence)
Format: cell-based
Conditions: at the above dose ranges (up to 100 μM)
Excerpt: In particular, compounds of formula (I), (I′), (Ia), (Ia′) or (Ib) I act as nonsense mutation suppressors on frequent PTCs, e.g. on Y122X in the mRNA of the cystic fibrosis conductance regulator protein (CFTR). This can be determined in vitro, for example, using cell lines expressing GFP-CFTR-Y122X-Renilla constructs as described herein.
Activity of compounds of the present invention was examined in recombinant, dual reporter isogenic Hek293 cell lines (“CFTR-Y122X assay”). The engineered reporter constructs contained the 18 bp sequence strech corresponding to a common Y122X PTC mutation in CFTR class I mutant patients (see Sermet-Gaudelus, BMC Medicine, 2007, 5(5)). Instead of a tyrosine (Y) in position 122 of the CFTR protein a TGA stop codon interrupts the open reading frame (Y122X) of the corresponding mRNA. This TGA stop codon triplet (followed by the pyrimidine base cytosine) is permissive to aminoglycoside mediated translational readthrough which served as positive control for high throughput screening. […] Stably integrated single cell derived clones were selected and characterized for aminoglycoside mediated readthrough. […] Readthrough of Y122X accumulates an intracellular localized fusion protein approximately 65.5 kDa in size as controlled by western blot analysis and immunofluorescence using an anti-renilla antibody. […]

SMILES	suppression, of paromomycin reference activity
Cc1csc2c1c(=O)c1c(=O)n(-c3ccccc3)c(C(C)C)cc1n2C [7-isopropyl-3,9-dimethyl-6-phenylthieno[2,3-b][1,6]naphthyridine-4,5(6H,9H)-dione]	less than 5%
Cc1csc2[nH]c3cc(C(C)C)n(-c4ccccc4)c(=O)c3c(=O)c12 [7-isopropyl-3-methyl-6-phenylthieno[2,3-b][1,6]naphthyridine-4,5(6H,9H)-dione]	less than 5%
